Some of the results follow. The data scatter; read single values as rough.
What was measured:
[1] = compound: ClCC(=O)N[C@@H]1CCCc2ccccc12; test: log2 mean competition ratio of IA-DTB cysteine labelling (DMSO/compound) (log2 ratio); higher = stronger cysteine engagement by compound; settings: treatment time: 4 h, cell line lysate: HEK293T
Procedure: (§1)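 IA-DTB competitive cysteine chemoproteomics in HEK293T RIPA lysate. Lysates were treated with compound 29 or 30 at 50 or 200 µM for 4 h, then IA-DTB (500 µM, 1 h), trypsin-digested, NeutrAvidin-enriched and analysed by diaPASEF. Competition ratio = intensity DMSO / intensity compound (n=4 treated, n=64 DMSO); binding: mean log2 CR ≥ 1 and p ≤ 0.05 plus QC filters. Target is the cysteine site.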

The chains behind the UniProt entries cited, without tags or fusion partners. Where a name states a change or a piece, a line headed by the entry shows the natural chain unless it says otherwise.
UniProt P36957: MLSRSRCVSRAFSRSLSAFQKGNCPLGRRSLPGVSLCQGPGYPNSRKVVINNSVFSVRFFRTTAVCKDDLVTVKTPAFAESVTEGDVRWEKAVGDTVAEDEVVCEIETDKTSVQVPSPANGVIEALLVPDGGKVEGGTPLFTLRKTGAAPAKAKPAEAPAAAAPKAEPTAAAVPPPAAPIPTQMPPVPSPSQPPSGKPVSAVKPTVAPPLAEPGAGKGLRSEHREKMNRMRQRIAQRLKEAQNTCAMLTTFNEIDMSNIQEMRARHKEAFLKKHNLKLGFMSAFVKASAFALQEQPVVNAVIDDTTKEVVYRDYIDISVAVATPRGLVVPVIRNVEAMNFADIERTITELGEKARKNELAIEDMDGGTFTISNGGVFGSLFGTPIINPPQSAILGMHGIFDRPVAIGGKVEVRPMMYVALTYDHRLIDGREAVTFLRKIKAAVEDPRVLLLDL
UniProt Q9Y485, whole entry, looked up: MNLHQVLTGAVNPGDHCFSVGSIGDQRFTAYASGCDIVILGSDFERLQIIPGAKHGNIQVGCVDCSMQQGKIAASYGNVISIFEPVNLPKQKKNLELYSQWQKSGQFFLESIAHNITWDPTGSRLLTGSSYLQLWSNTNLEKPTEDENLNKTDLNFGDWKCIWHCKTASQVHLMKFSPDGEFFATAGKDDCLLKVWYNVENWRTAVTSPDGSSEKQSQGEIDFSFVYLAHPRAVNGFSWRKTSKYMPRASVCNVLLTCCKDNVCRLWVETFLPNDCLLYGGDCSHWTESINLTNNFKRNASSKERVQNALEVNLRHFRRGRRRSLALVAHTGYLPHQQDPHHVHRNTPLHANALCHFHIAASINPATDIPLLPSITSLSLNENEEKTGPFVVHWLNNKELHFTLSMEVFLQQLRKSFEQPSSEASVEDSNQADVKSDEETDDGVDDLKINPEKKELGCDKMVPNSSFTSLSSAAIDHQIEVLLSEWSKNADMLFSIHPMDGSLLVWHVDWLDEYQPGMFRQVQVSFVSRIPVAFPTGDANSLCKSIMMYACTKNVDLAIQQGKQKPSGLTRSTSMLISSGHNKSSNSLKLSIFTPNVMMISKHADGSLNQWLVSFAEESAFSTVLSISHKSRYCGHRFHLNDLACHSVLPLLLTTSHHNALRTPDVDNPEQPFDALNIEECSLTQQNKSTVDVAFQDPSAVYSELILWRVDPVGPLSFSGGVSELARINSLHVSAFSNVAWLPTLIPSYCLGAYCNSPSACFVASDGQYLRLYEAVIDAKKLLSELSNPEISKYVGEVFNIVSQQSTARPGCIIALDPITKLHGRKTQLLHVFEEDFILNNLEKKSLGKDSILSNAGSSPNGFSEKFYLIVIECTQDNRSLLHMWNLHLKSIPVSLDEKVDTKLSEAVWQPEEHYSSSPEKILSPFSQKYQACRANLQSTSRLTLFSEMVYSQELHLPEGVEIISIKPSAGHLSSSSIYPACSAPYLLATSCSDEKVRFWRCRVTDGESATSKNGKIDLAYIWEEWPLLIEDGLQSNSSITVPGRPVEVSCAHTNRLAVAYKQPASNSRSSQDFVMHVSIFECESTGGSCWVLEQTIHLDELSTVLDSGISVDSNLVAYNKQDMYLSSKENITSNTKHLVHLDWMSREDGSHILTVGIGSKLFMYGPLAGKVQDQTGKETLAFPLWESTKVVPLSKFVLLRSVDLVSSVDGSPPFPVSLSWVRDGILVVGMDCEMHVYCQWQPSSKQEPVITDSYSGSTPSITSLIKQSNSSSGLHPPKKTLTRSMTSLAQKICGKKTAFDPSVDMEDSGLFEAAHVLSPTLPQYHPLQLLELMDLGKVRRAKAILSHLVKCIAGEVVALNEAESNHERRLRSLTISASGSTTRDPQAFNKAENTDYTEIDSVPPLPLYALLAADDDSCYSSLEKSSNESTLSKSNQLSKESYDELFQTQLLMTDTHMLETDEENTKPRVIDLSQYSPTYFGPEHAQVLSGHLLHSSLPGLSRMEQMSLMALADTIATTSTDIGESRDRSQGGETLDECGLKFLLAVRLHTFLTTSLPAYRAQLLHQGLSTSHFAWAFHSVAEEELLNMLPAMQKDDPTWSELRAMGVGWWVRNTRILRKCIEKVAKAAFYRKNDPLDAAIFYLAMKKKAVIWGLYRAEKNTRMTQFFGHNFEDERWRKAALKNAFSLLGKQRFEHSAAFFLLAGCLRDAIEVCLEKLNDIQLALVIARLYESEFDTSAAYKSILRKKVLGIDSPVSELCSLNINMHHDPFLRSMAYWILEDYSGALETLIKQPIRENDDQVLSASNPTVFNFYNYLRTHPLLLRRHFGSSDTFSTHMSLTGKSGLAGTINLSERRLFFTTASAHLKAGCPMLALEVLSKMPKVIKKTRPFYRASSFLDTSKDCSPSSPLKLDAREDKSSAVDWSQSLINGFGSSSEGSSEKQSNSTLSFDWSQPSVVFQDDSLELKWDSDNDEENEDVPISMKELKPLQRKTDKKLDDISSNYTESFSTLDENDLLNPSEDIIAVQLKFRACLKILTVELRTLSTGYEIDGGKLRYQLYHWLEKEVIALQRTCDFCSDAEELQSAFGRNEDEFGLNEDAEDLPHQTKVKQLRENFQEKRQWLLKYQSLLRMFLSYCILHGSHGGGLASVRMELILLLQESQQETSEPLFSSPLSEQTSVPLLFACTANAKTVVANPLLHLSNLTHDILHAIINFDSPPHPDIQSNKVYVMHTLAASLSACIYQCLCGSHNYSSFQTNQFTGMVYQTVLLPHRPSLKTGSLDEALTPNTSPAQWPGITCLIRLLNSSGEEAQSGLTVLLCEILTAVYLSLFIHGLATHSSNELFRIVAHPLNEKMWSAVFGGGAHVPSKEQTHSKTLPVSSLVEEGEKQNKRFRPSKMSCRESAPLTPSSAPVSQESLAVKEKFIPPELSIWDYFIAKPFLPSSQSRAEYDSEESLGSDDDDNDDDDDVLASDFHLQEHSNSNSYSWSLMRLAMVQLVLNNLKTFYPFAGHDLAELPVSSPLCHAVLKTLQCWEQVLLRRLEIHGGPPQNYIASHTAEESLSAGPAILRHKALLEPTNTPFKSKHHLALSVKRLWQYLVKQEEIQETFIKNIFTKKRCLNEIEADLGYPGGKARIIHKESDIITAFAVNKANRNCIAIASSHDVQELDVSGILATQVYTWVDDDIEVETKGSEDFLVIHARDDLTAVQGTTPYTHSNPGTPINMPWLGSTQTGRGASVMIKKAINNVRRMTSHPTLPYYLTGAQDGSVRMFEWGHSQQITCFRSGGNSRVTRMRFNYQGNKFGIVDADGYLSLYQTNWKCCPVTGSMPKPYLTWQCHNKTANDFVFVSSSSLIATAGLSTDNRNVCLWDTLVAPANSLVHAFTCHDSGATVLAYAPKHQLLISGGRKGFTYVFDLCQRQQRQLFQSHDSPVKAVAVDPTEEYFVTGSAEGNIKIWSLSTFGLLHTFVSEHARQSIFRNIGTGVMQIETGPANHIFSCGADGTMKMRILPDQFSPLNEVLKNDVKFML
UniProt Q9UPY3: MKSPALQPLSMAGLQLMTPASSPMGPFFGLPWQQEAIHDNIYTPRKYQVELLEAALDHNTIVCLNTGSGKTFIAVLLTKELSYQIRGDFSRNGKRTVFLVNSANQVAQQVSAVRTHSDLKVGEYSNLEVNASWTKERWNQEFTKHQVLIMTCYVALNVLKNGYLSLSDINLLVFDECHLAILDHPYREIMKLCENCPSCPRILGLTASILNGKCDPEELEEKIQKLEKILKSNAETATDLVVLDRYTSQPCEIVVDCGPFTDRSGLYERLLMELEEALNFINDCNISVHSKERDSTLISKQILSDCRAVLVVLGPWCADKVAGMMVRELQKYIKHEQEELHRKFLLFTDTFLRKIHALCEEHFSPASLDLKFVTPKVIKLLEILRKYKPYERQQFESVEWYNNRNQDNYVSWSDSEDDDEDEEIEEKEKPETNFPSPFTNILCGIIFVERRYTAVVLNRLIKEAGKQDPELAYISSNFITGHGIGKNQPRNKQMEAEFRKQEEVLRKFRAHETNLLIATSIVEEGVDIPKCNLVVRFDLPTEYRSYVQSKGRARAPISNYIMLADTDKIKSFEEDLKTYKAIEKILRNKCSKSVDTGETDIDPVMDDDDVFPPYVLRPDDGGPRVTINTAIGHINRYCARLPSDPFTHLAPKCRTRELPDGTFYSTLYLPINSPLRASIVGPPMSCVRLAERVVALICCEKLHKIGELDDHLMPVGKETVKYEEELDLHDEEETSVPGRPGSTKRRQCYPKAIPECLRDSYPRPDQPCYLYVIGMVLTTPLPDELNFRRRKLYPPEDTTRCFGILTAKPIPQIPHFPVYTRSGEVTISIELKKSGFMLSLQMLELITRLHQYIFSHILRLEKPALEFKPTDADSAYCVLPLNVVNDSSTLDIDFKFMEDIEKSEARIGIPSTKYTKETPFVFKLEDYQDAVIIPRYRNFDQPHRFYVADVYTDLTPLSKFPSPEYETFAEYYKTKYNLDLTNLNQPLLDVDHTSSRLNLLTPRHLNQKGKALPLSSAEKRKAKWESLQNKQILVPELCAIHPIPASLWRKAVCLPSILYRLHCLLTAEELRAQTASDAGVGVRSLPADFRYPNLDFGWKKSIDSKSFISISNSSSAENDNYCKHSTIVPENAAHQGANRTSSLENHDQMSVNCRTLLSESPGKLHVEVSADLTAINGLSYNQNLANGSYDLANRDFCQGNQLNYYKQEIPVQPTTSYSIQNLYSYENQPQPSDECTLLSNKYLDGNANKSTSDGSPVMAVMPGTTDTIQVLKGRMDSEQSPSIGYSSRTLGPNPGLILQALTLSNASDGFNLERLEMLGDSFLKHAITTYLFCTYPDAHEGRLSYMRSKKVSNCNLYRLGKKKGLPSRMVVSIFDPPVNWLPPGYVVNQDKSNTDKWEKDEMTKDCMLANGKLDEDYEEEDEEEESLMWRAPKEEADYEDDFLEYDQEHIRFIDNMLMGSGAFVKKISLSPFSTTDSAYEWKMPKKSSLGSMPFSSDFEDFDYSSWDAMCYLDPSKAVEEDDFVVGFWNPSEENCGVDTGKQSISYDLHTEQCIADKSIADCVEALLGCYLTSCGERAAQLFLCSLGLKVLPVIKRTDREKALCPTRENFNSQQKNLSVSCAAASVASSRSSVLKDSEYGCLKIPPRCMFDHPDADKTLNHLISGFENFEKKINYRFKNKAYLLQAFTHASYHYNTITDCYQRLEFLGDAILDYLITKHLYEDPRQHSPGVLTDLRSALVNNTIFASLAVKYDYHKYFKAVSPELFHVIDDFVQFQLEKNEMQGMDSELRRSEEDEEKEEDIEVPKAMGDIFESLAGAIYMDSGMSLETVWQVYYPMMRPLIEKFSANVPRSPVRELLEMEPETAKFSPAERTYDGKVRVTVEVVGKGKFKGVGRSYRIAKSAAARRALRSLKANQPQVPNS
UniProt Q14147: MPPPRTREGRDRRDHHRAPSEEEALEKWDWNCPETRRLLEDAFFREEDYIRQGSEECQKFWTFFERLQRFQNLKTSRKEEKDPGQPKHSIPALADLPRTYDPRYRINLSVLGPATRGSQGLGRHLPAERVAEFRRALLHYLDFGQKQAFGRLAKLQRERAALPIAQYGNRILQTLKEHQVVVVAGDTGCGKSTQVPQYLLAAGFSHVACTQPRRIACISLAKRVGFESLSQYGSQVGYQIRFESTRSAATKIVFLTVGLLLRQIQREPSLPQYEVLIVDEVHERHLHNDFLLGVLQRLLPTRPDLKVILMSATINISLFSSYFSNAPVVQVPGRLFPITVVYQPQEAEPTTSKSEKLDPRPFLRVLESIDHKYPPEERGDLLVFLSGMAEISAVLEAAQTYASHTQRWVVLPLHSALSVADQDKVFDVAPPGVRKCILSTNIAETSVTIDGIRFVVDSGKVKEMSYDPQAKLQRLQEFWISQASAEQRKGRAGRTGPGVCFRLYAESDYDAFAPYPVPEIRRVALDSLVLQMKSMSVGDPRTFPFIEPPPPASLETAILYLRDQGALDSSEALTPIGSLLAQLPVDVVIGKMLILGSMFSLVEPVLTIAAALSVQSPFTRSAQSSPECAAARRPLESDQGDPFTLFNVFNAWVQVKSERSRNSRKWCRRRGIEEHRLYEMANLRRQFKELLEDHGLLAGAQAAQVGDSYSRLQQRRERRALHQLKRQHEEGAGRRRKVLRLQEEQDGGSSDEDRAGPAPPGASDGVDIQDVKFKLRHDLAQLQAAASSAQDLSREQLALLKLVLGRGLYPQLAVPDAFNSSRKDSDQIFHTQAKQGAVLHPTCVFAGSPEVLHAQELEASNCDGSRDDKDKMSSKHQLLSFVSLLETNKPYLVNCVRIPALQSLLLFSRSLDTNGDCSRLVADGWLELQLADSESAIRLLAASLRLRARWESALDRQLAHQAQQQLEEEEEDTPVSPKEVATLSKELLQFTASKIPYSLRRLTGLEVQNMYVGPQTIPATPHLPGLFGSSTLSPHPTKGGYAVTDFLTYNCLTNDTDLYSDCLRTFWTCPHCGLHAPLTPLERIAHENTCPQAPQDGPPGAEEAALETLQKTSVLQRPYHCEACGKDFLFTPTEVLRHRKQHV

[2] = compound: ClCC(=O)N[C@H]1CCCc2ccccc12; test: as above; settings: treatment time: 4 h, cell line lysate: HEK293T
Procedure: as §1

Row | Target | log2 mean competition ratio ([1]; 50 µM) | log2 mean competition ratio ([1]; 200 µM) | log2 mean competition ratio ([2]; 50 µM) | log2 mean competition ratio ([2]; 200 µM)
1 | DLST C66 (UniProt P36957) | -0.187 | -0.213 | -0.309 | -0.109
2 | DMXL1 C1539 (UniProt Q9Y485) | -0.128 | -0.162 | -0.154 | -0.176
3 | DICER1 C1197 (UniProt Q9UPY3) | 0.383 | 0.0912 | 0.717 | 0.128
4 | DHX29 C1161 (UniProt Q7Z478) | 0.266 | -0.0837 | 0.474 | -0.0521
5 | DRAP1 C54 | 0.134 | 0.104 | 0.0513 | 0.14
6 | DR1 C94 (UniProt Q01658) | -0.0107 | -0.182 | 0.308 | -0.117
7 | DHX34 C32 (UniProt Q14147) | 0.0247 | 0.738 | -0.141 | 0.494
8 | DMXL1 C1904 (UniProt Q9Y485) | 0.138 | -0.393 | 0.257 | -0.295
